Test results: paper PMC10077476
Results are given in words; binding and its absence hold for the method and conditions named. For part of these data: In cells and extracts the contact can be indirect. Some results given as binding are weak or reduced against the parent protein; the word gives no strength. Tags and fused reporters may be left off the sequences shown. Values belong to the binder of their own block, whether it stands above or below them.

How the values were obtained:
[1] = biological target: T1, myc-Prdm6 (COS-7) (UniProt Q3UZD5); experiment: co-IP; COS-7 cells transfected with epitope-tagged Prdm6 and MRTF-A constructs; RIPA lysates, anti-myc or anti-flag IP overnight at 4°C, washed in 20 mM Tris HCl pH 7.3, 150 mM NaCl, 10% glycerol, 0.5% Triton X-100; Western blot; in separate experiments cytochalasin D was included
T1 sequence: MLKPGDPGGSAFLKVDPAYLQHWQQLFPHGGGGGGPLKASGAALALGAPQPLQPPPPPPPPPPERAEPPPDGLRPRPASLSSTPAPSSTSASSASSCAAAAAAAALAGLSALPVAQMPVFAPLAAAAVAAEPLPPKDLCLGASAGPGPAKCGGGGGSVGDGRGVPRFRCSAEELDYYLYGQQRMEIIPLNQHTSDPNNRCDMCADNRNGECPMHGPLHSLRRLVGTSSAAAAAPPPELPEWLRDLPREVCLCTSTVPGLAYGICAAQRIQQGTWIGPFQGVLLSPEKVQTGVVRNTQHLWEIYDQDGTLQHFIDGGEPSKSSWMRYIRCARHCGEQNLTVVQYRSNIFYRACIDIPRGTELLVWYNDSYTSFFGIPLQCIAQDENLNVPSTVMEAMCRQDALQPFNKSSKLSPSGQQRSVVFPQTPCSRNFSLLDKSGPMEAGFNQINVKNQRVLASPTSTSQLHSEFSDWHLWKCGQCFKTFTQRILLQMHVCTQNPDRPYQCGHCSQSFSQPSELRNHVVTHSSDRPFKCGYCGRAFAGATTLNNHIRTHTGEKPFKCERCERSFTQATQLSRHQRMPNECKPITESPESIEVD

[2] = biological target: T2, myc-Prdm6 (10T1/2) (UniProt Q3UZD5); experiment: co-IP; 10T1/2 cells transfected with myc-Prdm6 or empty vector; myc and control IgG immunoprecipitates probed with an Ab against endogenous MRTF-A
T2 sequence: T1 sequence

[3] = biological target: T3, flag-MRTF-A, full-length (COS-7) (UniProt Q8K4J6); experiment: far-Western, overlay or dot blot; flag-tagged MRTF-A variants immunoprecipitated from COS-7 cells, resolved by SDS-PAGE, transferred to nitrocellulose and renatured; incubated with recombinant GST-PRDM6 in blocking buffer (20% goat serum, 3% BSA, in PBS); probed with anti-GST Ab; both purified
T3 sequence: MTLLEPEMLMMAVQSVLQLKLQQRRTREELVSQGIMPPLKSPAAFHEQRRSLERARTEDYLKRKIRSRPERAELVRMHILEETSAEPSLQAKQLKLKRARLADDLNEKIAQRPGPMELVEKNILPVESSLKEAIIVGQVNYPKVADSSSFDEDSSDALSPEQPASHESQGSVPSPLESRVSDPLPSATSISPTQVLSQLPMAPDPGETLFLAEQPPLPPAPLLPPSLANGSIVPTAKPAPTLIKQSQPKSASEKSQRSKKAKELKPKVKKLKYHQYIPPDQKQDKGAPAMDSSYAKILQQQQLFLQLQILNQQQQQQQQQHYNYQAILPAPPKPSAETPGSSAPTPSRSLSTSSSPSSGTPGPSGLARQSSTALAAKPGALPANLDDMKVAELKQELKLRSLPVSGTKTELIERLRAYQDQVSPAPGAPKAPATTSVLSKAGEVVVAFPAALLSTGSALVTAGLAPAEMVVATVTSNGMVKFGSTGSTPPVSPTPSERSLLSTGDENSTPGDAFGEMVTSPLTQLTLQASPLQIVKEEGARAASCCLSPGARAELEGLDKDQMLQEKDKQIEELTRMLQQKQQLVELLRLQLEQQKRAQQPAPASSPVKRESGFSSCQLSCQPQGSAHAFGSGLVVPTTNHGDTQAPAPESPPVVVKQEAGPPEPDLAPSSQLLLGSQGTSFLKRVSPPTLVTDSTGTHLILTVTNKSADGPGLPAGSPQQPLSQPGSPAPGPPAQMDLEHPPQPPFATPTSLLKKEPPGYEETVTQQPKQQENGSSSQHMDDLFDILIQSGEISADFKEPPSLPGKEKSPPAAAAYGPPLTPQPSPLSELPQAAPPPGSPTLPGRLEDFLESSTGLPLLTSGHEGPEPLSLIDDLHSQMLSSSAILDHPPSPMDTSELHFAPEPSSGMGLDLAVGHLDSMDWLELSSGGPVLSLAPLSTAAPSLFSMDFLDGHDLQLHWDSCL

- binding [1]: binds
B1: flag-MRTF-A, full-length (COS-7) (protein, UniProt Q8K4J6 1-964)
chain: T3 sequence

- binding [2]: binds
B2: endogenous MRTF-A (10T1/2 cells) (protein, UniProt Q8K4J6 1-964)
chain: T3 sequence

- binding [3]: binds
B3: recombinant GST-PRDM6 protein (protein, UniProt Q3UZD5 1-596)
chain: T1 sequence
